Reference: PubChem BioAssay AID686938 (Drosophila RNAi Screening Center, 2013)

- Aim: 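Fly genes required for calcium entry once internal stores are emptied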 (primary screen)
- Cells: Drosophila S2R+ cells
- Reagent: long dsRNA against Drosophila genes, about 0.25 µg dsRNA per well, roughly 10,000 cells
- Duration: 5 days of knock-down before the calcium assay
- Conditions: thapsigargin (SERCA pump blocker) to empty calcium stores; entry signal taken 4 min after adding it
- Detection: 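Per-well fluo-4 fluorescence in two replicates, unnormalised, measured in resting cells and 4 min after store depletion by the SERCA blocker thapsigargin; ratio of the two present in few wells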
- Scale: calcium entry signal: higher = stronger calcium signal after store depletion; resting calcium signal: higher = higher resting calcium signal
- Rule for the call: 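Called when the plate z-score of the entry-to-rest ratio, mean of duplicates, falls below −3; wells with low overall dye signal (Fmax z below −2) or more than five off-targets excluded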
- Meaning of the calls: active = strongly reduced calcium entry; inactive = no strong reduction
The screen tested about 23,000 reagents; this is a random part of those that have a named target and a result. In the full data, 75 (0.33%) got an active call. 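Raw plate signals without normalisation; calls rest on plate z-scores that were not deposited; ratio present for only 364 wells.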 Entries without a mark were called inactive. Names joined by + are all predicted targets of the reagent. Not stated in the record: the dose of the treatment.

Gene,DRSC id,"calcium entry signal, replicate 1 (fluorescence units)","calcium entry signal, replicate 2 (fluorescence units)","resting calcium signal, replicate 1 (fluorescence units)","resting calcium signal, replicate 2 (fluorescence units)"
Klp59C (Kinesin-like protein at 59C),DRSC04348,3.92e7,4.18e7,2.08e7,1.97e7
CG13711,DRSC08320,2.92e7,5.34e7,1.47e7,2.15e7
CdGAPr (Cd GTPase activating protein-related),DRSC03289,3.58e7,5.11e7,1.74e7,1.99e7
caup (caupolican),DRSC11334,2.44e7,2.38e7,1.39e7,1.18e7
caup (caupolican),DRSC23050,3.76e7,4.31e7,1.89e7,1.96e7
Fa2h (Fatty acid 2-hydroxylase),DRSC06608,4.01e7,4.02e7,1.92e7,1.87e7
Fa2h (Fatty acid 2-hydroxylase),DRSC06609,3.95e7,3.91e7,1.83e7,1.73e7
CG31253 + CG31131,DRSC13839,4.13e7,3.39e7,1.97e7,1.76e7

An excerpt from above, showing only “calcium entry signal, replicate 1 (fluorescence units)”.
caup (caupolican) [DRSC23050] = 3.76e7
Fa2h (Fatty acid 2-hydroxylase) [DRSC06608] = 4.01e7

Continued:
Gene,DRSC id,"calcium entry signal, replicate 1 (fluorescence units)","calcium entry signal, replicate 2 (fluorescence units)","resting calcium signal, replicate 1 (fluorescence units)","resting calcium signal, replicate 2 (fluorescence units)"
Cep135 (Centrosomal protein 135kDa),DRSC09345,4.81e7,4.24e7,2.18e7,1.95e7
Cep135 (Centrosomal protein 135kDa),DRSC10244,3.45e7,4.44e7,1.61e7,2.97e7
CG10730,DRSC02102,2.56e7,3.41e7,1.23e7,1.60e7
DMAP1 (DNA methyltransferase 1 associated protein 1),DRSC06044,3.65e7 (active),3.42e7,2.31e7,2.29e7
Trim9 (Tripartite motif containing 9),DRSC02242,3.74e7,4.48e7,1.77e7,2.00e7
SMC3 (Structural maintenance of chromosomes 3),DRSC20227,2.72e7,3.03e7,1.60e7,1.68e7
Ho (Heme oxygenase),DRSC14939,2.93e7,3.07e7,1.32e7,1.43e7
mthl14 (methuselah-like 14),DRSC07865,2.96e7,4.77e7,1.56e7,2.08e7
CG31139,DRSC21393,4.28e7,3.71e7,2.41e7,1.75e7
CG4707,DRSC04483,3.29e7,,1.70e7,
Ifrd1 (Interferon-related developmental regulator 1),DRSC00415,2.50e7,1.93e7,1.27e7,9.68e6
Ifrd1 (Interferon-related developmental regulator 1),DRSC00566,2.75e7,2.28e7,1.37e7,1.16e7
Sgs3 (Salivary gland secretion 3),DRSC11280,2.88e7,4.15e7,1.59e7,1.73e7
CG9609,DRSC20199,2.23e7,2.30e7,1.08e7,1.03e7
edin (elevated during infection),DRSC09488,1.94e7,2.48e7,1.00e7,1.00e7
CG42258,DRSC19741,4.50e7,3.11e7,2.10e7,1.41e7
CG42258,DRSC19783,4.92e7,4.54e7,2.22e7,2.26e7
CG42258,DRSC23161,5.29e7,3.09e7,2.43e7,1.21e7
